Data from the supplement of paper PMC12823440, “Inhibitors supercharge kinase turnover through native proteolytic circuits” (Nature, 2025).
Where a name gives a salt, the structure may show the parent alone. Some of the results follow. The calls rarely recur for the same compound in another form.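 Kinases were expressed as nanoluciferase fusions in K562 cells and luminescence was read every 4 h between 2 and 18 h as percent of control, DMSO set to 100% and a positive control to 0%. A time point counts as decreased when the signal drops significantly (2 sigma). The hit call is the authors' own, does not follow from the count of time points alone, and its rule is not shown.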

Amino acid sequences for entries named in this document (tags omitted). A change or cut given only in a name is not applied to a line headed by its entry.
UniProt P48729: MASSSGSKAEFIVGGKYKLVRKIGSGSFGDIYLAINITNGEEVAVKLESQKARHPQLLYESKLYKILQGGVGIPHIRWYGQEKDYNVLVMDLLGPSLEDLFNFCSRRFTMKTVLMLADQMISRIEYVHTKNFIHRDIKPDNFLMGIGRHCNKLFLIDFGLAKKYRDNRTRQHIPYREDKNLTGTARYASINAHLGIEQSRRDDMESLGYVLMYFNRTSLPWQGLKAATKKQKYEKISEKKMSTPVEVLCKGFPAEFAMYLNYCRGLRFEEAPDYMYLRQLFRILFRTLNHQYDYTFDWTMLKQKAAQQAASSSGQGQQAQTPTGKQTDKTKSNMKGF
UniProt P48730: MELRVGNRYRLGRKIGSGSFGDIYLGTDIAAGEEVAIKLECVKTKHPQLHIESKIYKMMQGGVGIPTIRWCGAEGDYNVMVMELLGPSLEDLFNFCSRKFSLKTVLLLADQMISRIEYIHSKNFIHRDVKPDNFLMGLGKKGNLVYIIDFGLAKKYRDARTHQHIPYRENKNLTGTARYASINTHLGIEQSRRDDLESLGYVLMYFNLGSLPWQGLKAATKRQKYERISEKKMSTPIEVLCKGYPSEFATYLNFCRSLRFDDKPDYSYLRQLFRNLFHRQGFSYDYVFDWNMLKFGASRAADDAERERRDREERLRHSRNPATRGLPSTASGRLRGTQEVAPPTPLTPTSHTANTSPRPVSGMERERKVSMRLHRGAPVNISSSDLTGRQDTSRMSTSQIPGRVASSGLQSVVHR
UniProt Q08345: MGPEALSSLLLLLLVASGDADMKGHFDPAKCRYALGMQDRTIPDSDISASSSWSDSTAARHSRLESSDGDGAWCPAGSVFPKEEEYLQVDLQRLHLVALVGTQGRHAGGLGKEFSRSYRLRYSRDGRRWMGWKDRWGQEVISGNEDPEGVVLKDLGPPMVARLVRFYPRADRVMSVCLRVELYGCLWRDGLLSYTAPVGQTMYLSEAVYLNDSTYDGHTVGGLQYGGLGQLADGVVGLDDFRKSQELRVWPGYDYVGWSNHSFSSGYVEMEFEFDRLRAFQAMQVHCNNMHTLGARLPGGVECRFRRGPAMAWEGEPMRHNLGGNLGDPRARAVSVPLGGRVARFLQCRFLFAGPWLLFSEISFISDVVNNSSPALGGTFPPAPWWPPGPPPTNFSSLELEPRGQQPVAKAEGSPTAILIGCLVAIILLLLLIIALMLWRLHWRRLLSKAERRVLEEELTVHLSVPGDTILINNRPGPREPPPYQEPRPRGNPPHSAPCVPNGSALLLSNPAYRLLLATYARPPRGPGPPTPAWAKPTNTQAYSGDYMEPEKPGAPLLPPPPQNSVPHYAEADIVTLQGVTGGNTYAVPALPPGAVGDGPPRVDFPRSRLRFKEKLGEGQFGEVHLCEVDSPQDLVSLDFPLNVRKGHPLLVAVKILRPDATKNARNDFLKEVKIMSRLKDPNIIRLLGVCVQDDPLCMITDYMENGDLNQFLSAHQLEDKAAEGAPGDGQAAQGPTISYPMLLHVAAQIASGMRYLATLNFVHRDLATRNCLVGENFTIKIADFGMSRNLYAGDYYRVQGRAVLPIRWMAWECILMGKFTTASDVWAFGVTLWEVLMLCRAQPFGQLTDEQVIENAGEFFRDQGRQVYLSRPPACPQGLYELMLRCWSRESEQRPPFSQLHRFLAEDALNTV
UniProt Q9Y463, whole entry, looked up: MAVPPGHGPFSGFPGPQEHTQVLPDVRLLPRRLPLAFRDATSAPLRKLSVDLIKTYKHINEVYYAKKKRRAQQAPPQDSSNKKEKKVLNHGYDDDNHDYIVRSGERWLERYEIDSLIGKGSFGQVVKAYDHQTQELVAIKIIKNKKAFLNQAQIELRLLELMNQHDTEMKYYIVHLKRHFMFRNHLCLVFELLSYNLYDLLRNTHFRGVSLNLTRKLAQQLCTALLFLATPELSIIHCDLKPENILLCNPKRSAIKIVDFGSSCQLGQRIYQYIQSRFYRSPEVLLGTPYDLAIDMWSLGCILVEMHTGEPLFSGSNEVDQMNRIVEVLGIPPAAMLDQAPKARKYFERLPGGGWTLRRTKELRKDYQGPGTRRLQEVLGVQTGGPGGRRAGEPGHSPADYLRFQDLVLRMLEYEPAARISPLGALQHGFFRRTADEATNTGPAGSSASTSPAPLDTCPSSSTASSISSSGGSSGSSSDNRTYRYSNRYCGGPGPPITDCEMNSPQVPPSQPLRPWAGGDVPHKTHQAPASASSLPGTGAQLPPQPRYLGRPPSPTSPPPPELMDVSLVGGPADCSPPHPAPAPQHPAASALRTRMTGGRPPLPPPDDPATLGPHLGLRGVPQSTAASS
UniProt P21860, whole entry: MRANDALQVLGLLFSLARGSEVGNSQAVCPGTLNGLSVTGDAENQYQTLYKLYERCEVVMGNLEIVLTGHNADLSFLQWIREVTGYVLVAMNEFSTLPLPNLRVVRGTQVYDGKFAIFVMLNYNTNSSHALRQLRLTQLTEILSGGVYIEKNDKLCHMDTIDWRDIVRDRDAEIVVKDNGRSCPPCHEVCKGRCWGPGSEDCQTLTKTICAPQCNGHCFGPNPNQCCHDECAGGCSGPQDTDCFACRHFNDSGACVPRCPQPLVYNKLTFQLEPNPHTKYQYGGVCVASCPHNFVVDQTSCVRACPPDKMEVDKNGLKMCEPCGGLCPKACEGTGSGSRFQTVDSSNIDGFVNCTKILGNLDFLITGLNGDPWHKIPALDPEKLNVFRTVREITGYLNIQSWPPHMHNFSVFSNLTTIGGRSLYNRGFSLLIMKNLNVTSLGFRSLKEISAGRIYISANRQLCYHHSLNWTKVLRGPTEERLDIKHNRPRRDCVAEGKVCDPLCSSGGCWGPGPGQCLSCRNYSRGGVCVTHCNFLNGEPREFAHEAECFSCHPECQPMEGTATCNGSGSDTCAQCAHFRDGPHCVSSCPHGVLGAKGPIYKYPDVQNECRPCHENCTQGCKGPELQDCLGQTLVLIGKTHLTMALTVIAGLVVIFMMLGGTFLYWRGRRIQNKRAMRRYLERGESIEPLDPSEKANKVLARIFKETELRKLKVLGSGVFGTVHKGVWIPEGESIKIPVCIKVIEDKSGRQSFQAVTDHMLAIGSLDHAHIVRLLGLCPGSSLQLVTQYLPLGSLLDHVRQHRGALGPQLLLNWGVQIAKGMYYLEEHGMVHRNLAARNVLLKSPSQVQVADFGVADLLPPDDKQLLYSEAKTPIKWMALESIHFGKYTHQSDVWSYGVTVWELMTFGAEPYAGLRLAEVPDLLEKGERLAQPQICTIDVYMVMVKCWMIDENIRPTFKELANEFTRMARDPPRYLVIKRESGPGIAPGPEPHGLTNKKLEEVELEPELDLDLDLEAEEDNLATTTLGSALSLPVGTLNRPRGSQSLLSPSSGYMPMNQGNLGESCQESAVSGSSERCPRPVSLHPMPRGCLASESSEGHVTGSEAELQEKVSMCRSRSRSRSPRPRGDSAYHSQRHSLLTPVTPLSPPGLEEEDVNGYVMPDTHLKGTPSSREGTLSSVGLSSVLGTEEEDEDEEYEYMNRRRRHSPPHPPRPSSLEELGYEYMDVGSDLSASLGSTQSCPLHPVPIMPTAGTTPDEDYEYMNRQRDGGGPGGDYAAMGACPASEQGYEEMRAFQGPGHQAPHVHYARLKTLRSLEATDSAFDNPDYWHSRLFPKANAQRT
UniProt O75460: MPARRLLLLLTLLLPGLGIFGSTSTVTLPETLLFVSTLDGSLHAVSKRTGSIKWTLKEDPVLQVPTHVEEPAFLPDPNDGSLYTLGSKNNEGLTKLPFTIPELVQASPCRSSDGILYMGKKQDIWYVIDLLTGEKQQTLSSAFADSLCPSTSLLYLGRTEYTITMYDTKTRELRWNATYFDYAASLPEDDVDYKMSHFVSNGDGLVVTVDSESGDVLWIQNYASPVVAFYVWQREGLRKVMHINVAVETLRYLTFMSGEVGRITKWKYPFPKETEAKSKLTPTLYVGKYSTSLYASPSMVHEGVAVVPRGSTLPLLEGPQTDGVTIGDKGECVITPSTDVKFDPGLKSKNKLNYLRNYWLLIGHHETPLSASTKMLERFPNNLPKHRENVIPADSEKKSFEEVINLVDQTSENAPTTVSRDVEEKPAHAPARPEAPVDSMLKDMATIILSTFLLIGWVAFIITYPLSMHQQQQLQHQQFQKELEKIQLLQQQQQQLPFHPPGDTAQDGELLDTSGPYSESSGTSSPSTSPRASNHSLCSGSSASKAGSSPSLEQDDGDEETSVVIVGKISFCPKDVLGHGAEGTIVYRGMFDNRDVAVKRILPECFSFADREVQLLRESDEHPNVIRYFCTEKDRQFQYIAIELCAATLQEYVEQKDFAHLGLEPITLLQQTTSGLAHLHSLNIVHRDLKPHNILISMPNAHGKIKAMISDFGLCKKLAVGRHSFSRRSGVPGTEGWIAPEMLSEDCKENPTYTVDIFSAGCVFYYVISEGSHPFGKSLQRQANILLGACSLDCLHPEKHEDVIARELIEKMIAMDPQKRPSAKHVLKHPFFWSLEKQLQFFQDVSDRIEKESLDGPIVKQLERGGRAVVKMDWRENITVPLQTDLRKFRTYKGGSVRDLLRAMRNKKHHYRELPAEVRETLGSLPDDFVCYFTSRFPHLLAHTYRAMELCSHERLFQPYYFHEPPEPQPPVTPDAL
UniProt P11362, whole entry, looked up: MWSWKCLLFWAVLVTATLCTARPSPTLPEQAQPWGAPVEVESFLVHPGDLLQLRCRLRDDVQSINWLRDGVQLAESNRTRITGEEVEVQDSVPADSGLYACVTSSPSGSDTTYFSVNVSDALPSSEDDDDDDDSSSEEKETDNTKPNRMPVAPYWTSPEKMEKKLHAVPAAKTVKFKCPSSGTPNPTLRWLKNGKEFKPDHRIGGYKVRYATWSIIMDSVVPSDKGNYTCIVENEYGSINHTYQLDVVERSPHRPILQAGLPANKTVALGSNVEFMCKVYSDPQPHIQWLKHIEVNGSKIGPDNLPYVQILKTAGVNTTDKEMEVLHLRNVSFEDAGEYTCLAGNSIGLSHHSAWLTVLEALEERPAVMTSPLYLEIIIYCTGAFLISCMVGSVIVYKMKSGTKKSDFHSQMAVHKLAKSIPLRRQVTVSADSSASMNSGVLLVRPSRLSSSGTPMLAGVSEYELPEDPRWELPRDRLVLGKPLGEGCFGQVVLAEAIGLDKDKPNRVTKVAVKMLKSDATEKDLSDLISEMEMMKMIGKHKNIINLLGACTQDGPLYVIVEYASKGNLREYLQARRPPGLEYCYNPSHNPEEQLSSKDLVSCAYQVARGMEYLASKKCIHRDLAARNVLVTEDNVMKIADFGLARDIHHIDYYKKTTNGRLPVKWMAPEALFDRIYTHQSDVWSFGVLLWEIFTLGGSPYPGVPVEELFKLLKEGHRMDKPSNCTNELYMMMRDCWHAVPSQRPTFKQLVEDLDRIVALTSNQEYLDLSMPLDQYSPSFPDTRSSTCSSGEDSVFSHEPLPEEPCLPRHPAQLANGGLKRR
UniProt P21802, whole entry, looked up: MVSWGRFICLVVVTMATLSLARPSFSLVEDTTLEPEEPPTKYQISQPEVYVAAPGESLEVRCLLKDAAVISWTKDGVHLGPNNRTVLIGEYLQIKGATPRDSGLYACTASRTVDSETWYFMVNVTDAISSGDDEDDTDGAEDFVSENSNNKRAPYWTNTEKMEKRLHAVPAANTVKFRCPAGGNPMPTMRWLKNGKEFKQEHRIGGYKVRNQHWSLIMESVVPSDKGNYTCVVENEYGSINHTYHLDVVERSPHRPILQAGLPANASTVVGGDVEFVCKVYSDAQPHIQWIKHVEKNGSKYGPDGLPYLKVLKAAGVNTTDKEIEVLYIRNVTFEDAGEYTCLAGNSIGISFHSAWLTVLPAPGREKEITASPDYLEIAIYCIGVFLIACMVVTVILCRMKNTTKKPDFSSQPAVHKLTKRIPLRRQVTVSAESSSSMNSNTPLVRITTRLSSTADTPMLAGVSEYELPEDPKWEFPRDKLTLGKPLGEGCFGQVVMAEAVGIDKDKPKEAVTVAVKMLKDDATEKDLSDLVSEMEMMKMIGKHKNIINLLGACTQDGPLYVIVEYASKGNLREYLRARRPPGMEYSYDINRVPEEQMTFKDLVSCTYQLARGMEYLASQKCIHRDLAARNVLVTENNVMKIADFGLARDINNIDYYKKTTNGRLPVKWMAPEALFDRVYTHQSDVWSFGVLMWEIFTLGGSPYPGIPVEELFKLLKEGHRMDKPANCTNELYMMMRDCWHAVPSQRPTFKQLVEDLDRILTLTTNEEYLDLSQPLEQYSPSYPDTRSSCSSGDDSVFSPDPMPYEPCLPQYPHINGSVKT

Legend:
Experiment in all cases: number of time points (of 5) at which kinase-Nluc abundance scored as decreased, DMSO-normalised (count); higher = more persistent destabilization
Conditions in all cases: K562; 2-18 h
CSNK1A1 = CSNK1A1 (UniProt P48729)
CSNK1D = CSNK1D (UniProt P48730)
DDR1 = DDR1 (UniProt Q08345)
DYRK1B = DYRK1B (UniProt Q9Y463)
DYRK2 = DYRK2 (UniProt Q92630)
EGFR = EGFR (UniProt P00533)
EGFR_G719S = EGFR_G719S (UniProt P00533)
EGFR_G719S_T790M = EGFR_G719S_T790M (UniProt P00533)
EGFR_L718V = EGFR_L718V (UniProt P00533)
EGFR_L858R = EGFR_L858R (UniProt P00533)
EGFR_L861Q = EGFR_L861Q (UniProt P00533)
EGFR_T790M = EGFR_T790M (UniProt P00533)
EPHA2 = EPHA2 (UniProt P29317)
ERBB3 = ERBB3 (UniProt P21860)
[1] = target: ERBB4_R711C (clone: ERBB4_mut) (UniProt Q15303)
ERN1 = ERN1 (UniProt O75460)
FGFR1 = FGFR1 (UniProt P11362)
FGFR2 = FGFR2 (UniProt P21802)
FGFR3 = FGFR3 (UniProt P22607)
FGR = FGR (UniProt P09769)

Measured: number of time points

O=C(ON=C1c2ccccc2-c2nc3ccccc3nc21)c1ccco1 (2.5 µM)
0: all assays above

COc1ccc2c3n(c(=NC(=O)c4cccnc4)nc2c1OC)CCN3 (2 µM)
0: all assays above

COC(=O)/C=C/c1ccccc1 [Methyl cinnamate] (10 µM)
0: all assays above

COC(=O)Nc1ccc(-c2nc(N3CCOCC3)c3cnn(C4CCN(C(=O)OC)CC4)c3n2)cc1 (10 µM)
0: all assays above

C=C1CCC[C@]2(C)C=C3OC(=O)C(C)=C3C[C@@H]12 [Atractylenolide I] (10 µM)
0: all assays above

CCN(CC)CCOc1ccc(Nc2nc(-c3ccccc3NC(=O)CCN3CCN(C)CC3)nc3ccccc23)cc1 (2.5 µM)
0: all assays above

CC(C)[C@H](CO)Nc1nc(Nc2cccc(Cl)c2)c2ncn(C(C)C)c2n1 [Purvalanol A] (10 µM)
5: DDR1
0: all other assays above

NC1(C(=O)NCCCn2cc(-c3ccc(OC(F)(F)F)cc3)c3cc(CN4CCN(Cc5c(Cl)cccc5Cl)CC4)ccc32)CCNCC1 (2.5 µM)
4: DYRK2
0: all other assays above

Clc1ccc(C(c2ccc(Cl)cc2)[n+]2ccn(CC(OCc3ccc(Cl)cc3Cl)c3ccc(Cl)cc3Cl)c2)cc1 (stereo not given) [Calmidazolium chloride] (2.5 µM)
2: DYRK1B
1: DDR1 | ERBB3
0: all other assays above

NC[C@@](O)(c1ccc(Cl)cc1)c1ccc(-c2cn[nH]c2)cc1 (10 µM)
4: DDR1
0: all other assays above

CO[C@H]1C[C@@H]2CC[C@@H](C)[C@@](O)(O2)C(=O)C(=O)N2CCCC[C@H]2C(=O)O[C@H]([C@H](C)C[C@@H]2CC[C@@H](OCCO)[C@H](OC)C2)CC(=O)[C@H](C)/C=C(\C)[C@@H](O)[C@@H](OC)C(=O)[C@H](C)C[C@H](C)/C=C/C=C/C=C/1C [Everolimus] (10 µM)
0: all assays above

CCCCCc1ccc(/C=C/[C@H](O)[C@@H](CO)NC)cc1 [SK1-I (hydrochloride)] (10 µM)
0: all assays above

C[C@@H]1O[C@@H](Oc2cc(O)c3c(=O)c(O[C@@H]4O[C@@H](C)[C@H](O)[C@@H](O)[C@H]4O)c(-c4ccc(O)cc4)oc3c2)[C@H](O)[C@H](O)[C@H]1O [Kaempferitrin] (10 µM)
0: all assays above

CCCn1/c(=N/C(=O)c2cccc(C(N)=O)c2)[nH]c2ccccc21 [Takinib] (10 µM)
0: all assays above

CCc1c[nH]c2ncnc(N3CC[C@](N)(CNC(=O)c4ccc(F)cc4F)C3)c12 (10 µM)
0: all assays above

C[C@@H](Nc1ncnc2[nH]c(-c3ccc(O)cc3)cc12)c1ccccc1 (2.5 µM)
0: all assays above

N#C/C(=C\c1ccc(O)c(O)c1)C(=O)O [Tyrphostin AG30] (10 µM)
0: all assays above

N[C@@H]1CCCN(c2c(/C=C3\SC(=O)NC3=O)cccc2-c2ccccc2)C1 (10 µM)
4: DYRK2
1: [1]
0: all other assays above

C=C1C(=O)[C@@]23[C@H](O)C[C@@H]4C(C)(C)C(=O)CC[C@@]4(C)[C@@H]2CC[C@@H]1[C@H]3O [Glaucocalyxin A] (2.5 µM)
2: [1]
0: all other assays above

O=c1[nH]ccc2nc(-c3ccc(CN4CCC(c5nc(-c6ccccn6)n[nH]5)CC4)cc3)c(-c3ccccc3)cc12 (10 µM)
0: all assays above

O=C(O)c1cc(N(Cc2ccccc2O)Cc2cc(O)ccc2O)ccc1O [Lavendustin A] (10 µM)
3: EPHA2
1: FGR
0: all other assays above

Nc1ncnc2c1nc(Br)n2[C@@H]1O[C@@H]2COP(=O)(O)O[C@H]2[C@H]1O [8-Bromo-cAMP sodium salt] (10 µM)
0: all assays above

CN(C)c1ccc(-c2nc3ncc(Cl)c(N4CCN(CC(=O)Nc5nccs5)CC4)c3[nH]2)cc1 (2 µM)
0: all assays above

Two neighbouring entries from above:
C=C1C(=O)[C@@]23[C@H](O)C[C@@H]4C(C)(C)C(=O)CC[C@@]4(C)[C@@H]2CC[C@@H]1[C@H]3O [Glaucocalyxin A] (2.5 µM)
2: [1]
0: all other assays above

O=c1[nH]ccc2nc(-c3ccc(CN4CCC(c5nc(-c6ccccn6)n[nH]5)CC4)cc3)c(-c3ccccc3)cc12 (10 µM)
0: all assays above

Continued:

CCN1CCN(Cc2cnc(Nc3cc(-c4cc(F)c5nc(C)n(C(C)C)c5c4)c(F)cn3)nc2)CC1 (10 µM)
2: [1]
3: EGFR_G719S
0: all other assays above
